According to paper PMC7059380, “In vivo visualization of the i-motif DNA secondary structure in the Bombyx mori testis”:

Biological target: T1, BmILF (Bombyx mori) (UniProt A0A1U9WZ16)
T1 sequence (looked up, limits assumed): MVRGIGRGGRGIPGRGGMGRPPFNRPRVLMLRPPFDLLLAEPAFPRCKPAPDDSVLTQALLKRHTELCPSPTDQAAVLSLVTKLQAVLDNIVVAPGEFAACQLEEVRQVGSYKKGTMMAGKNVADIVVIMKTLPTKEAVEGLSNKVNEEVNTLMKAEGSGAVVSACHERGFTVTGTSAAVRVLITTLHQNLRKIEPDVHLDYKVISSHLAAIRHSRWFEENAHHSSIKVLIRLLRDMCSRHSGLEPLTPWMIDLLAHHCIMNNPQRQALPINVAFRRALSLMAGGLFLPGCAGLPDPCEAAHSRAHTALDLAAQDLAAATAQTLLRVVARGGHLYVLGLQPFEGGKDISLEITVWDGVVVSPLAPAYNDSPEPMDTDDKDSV
Test: EMSA
Conditions: EMSA: 20 ul, 2.5% glycerol, 0.05% NP-40, 5 mM MgCl2, 4 mM EDTA, RT 20 min; probes folded in 50 mM Tris-TAE pH 4.0 (also 6.0, 8.0); recombinant protein; label: 5' biotin

Row | Sequence | binding result
1 | TTGTTGCCCCGCCCCTCGGCCCCCTCGCGCCCCGCACTGG (double strand) [BmPOUM2 dsDNA] | no binding
2 | CCCCGCGCCCCCCGCGTCCCCCGCACCCCC (double strand) [BGIBMGA003213 dsDNA] | no binding

For at least one entry, the source does not settle the construct or the ends of the probe. Negatives hold for the conditions tested. Protein sequences can lack the tags named with them.
